These are literature values, as cited in PMC7181201, “Dual P-Glycoprotein and CA XII Inhibitors: A New Strategy to Reverse the P-gp Mediated Multidrug Resistance (MDR) in Cancer Cells” (Molecules, 2020).

This data set has as its system K562 cells. Also noted: method as in PMID 30947123. Particulars: K562 parental cells ref 38; read-out: doxorubicin IC50; cited from earlier work.

Regarding `COc1cccc2c1C(=O)c1c(O)c3c(c(O)c1C2=O)C[C@@](O)(C(=O)CO)C[C@@H]3O[C@H]1C[C@H](N)[C@H](O)[C@H](C)O1` [doxo, doxorubicin], the IC50 – broadly, the concentration needed to halve the response being measured – was 34 ± 8 nM.
